Experimental data from PubChem BioAssay AID1439 (NMMLSC, 2008).
In all, about 220,000 compounds went through this assay and about 770 (0.35%) were called active. The inconclusive results got no clear call from the source; some entries with a clear call stand among them for comparison. Rule as the data show it: active = binding response below about 49% or above about 150%; inconclusive = no clear call, values can overlap the other calls; inactive = in between.

Sequences of proteins named here, by UniProt entry; tags and fusion partners are left off.
UniProt P09471, whole entry, looked up: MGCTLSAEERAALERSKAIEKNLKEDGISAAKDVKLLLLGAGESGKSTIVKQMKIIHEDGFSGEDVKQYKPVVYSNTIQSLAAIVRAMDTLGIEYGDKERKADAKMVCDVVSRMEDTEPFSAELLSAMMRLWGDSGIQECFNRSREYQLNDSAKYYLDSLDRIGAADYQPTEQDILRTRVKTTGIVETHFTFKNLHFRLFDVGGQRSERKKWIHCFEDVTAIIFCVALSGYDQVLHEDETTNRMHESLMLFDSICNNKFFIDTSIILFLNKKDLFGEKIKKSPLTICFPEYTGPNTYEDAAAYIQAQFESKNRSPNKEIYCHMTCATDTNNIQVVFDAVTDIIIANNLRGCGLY

Each compound was assayed against Guanine nucleotide-binding protein G(o) subunit alpha (Homo sapiens) (UniProt P09471) (assay: RGS7-Galphao binding modulators, primary screen, biochemical, multiplexed bead flow cytometry (AID 1439;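 also: fluorescent Galphao held in activated GDP-AlF4 state binding bead-coupled RGS7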)). Settings: at 10 µM, actives lie on both sides.

Structure (SMILES)	binding response (% of control)
CC1CN=C(N(C(=S)Nc2ccccc2)c2cccc(C(F)(F)F)c2)S1 (stereo not drawn)	inconclusive: 107%
CCOC(=O)C1CCCN(C(=O)c2ccc(Cl)cc2)C1 (stereo not drawn)	inconclusive: 95.3%
CC(C)(C)C(=O)O/N=C(\N)COc1cccc(Cl)c1	inconclusive: 88.7%
CCNc1nc(SCCOc2ccc(Br)cc2)nc(N(C)C)n1	inactive: 89.5%
CN(C)CCN(C(=O)c1ccc(Br)s1)c1nc2cc3c(cc2s1)OCCO3	inconclusive: 77.3%
CCCn1c(SCC(=O)c2[nH]c(C)c(C(C)=O)c2C)n[nH]c1=O	inconclusive: 83.8%
COc1ccc(Nc2oc(-c3ccc(OC)cc3)nc2C#N)cc1	inconclusive: 85.5%
COc1ccc2c(=O)c3c(=O)n(Cc4ccco4)c(-c4ccc(C)cc4)nc3oc2c1	inactive: 88.8%
COc1ccc(C)cc1-n1nnnc1SCC1CCCO1 (stereo not drawn)	active: 20.6%
COc1ccc(Br)cc1/C=N/NC(=O)Cn1nnnc1N	inconclusive: 73.9%
O=C(Nc1ccc(Cl)cc1)N1CCSC1=NCc1ccccc1	inconclusive: 211%
CCOC(=O)Cc1csc(NC(=O)CCCC(=O)O)n1	inconclusive: 96.8%
Nc1nc(Cl)cc(NCCc2ccc(O)cc2)n1	inconclusive: 98.8%
COc1cc(/C=C2\SC(=S)N(NS(=O)(=O)c3ccccc3)C2=O)ccc1O	inconclusive: 165%
NC(=O)c1oc2ccccc2c1NC(=O)c1ccco1	inactive: 98.3%
Oc1[nH]c2ccc(Br)cc2c1N=NC(=S)Nc1ccc(F)cc1	inconclusive: 92.2%
C/C(=N\Nc1ccc(C(=O)O)cc1)c1ccc(Br)cc1	inconclusive: 108%
Cc1ccc(-n2c(C)cc(/C=C3/SC(=O)N(CC(=O)N4CCOCC4)C3=O)c2C)nc1	inconclusive: 90.9%
COc1ccc(NC(=S)N(CCN2CCCCC2)Cc2ccco2)cc1	inactive: 99.3%
Cc1[nH]ccc2c1[nH]c1cc(=O)ccc12	inconclusive: 118%

Ordered by count of non-hydrogen atoms (rising): some entries from above.
Structure (SMILES)	binding response (% of control)
C/C(=N\Nc1ccc(C(=O)O)cc1)c1ccc(Br)cc1	inconclusive: 108%
COc1ccc(C)cc1-n1nnnc1SCC1CCCO1 (stereo not drawn)	active: 20.6%
CCCn1c(SCC(=O)c2[nH]c(C)c(C(C)=O)c2C)n[nH]c1=O	inconclusive: 83.8%

Additional structures

Structure (SMILES)	binding response (% of control)
COc1ccc(-c2csc(NC(=O)CCS(=O)(=O)c3ccccc3)n2)c(OC)c1	inconclusive: -422%
CC1CCCN(Cc2nc(Cc3ccccc3Cl)no2)C1 (stereo not drawn)	inactive: 97.3%
N#Cc1ccc(C23CC4(C2)[C@H](CN(Cc2ccc(-c5ccccc5)cc2)[C@@H]4c2ccccc2)C3c2ccc(Cl)nc2)cc1 (stereo partly drawn)	inconclusive: 110%
Cc1nc(NC(=O)/C=C/c2ccccc2)sc1C(=O)N1CCCCC1	inactive: 99.4%
O=C(N[C@@H](Cc1ccccc1)C(=O)OCc1ccccc1)c1nc[nH]c1C(=O)N1CCN(c2ccccc2)CC1	inconclusive: 103%
CCCOC(=O)c1ccc(NC(=O)Oc2ccccc2)cc1	inactive: 97.3%
CCCCCC(=O)N1CC2(CC(c3cccc(NC(=O)COc4ccc(Cl)cc4)c3)=NO2)C[C@@H]1C(N)=O (stereo partly drawn)	inconclusive: 110%
COc1ccccc1NS(=O)(=O)c1ccc2oc(=S)[nH]c2c1	inconclusive: 420%
O=S(=O)(c1cccs1)N1CN(C2CCCCC2)c2nc3ccccc3nc21	inconclusive: 91.2%
N/C(=N\OC(=O)CN1C(=O)c2ccccc2C1=O)c1ccc(Br)cc1	inconclusive: 111%
CC1=C(C(=O)OCC2CCCO2)C(c2coc3ccccc3c2=O)C2=C(CC(C)(C)CC2=O)N1 (stereo not drawn)	inactive: 92.1%
O=C(CSc1n[nH]c(-c2ccccc2F)n1)NCC(=O)Nc1ccc(F)c(F)c1F	inconclusive: 120%
O=P(CCCCCCCCCP(=O)(c1ccccc1)c1ccccc1)(c1ccccc1)c1ccccc1	inactive: 94.4%
CC(C)(C)c1cc(NCc2ccccn2)n2ncc(-c3ccccc3)c2n1	inconclusive: 91.7%
O=S(=O)(Nc1cccc2c1ccc1cccn12)c1cccs1	inactive: 108%
C/C(N)=C(/C#N)C(=O)COC(=O)C(c1ccccc1)c1ccccc1	inactive: 92.5%
COc1ccc(C(C)=O)cc1CSc1nnnn1-c1ccc(O)cc1	inconclusive: 145%
Oc1cc(O)c2c(c1)O[C@H](c1ccc(O)c(O)c1)[C@@H](O)C2	inconclusive: 80.8%
COC(=O)/C=C1\S/C(=N/N=C/c2ccc(Cl)cc2)NC1=O	inconclusive: 78.6%
CCN(CC)c1nc2cc(C)ccc2cc1/C=C(\C#N)C(N)=O	inconclusive: 102%

Structure (SMILES)	binding response (% of control)
C=C[C@@H]1CN2CCC1C[C@@H]2[C@@H](O)c1ccnc2ccc(OC)cc12 (stereo partly drawn)	inconclusive: 113%
CN(C)S(=O)(=O)c1ccc(NC(=O)COC(=O)CC2CC3CCC2C3)cc1 (stereo not drawn)	inconclusive: 104%
CC1CCCN(c2nc3c(c(=O)[nH]c(=O)n3C)n2CCSc2ncccn2)C1 (stereo not drawn)	inactive: 99.8%
Cc1cccc(/C(N)=N/OC(=O)c2ccccc2Cl)c1	inconclusive: 126%
Cc1ccccc1S(=O)(=O)N(CC(O)CN1C(=O)NC(C)(C)C1=O)c1ccccc1 (stereo not drawn)	inconclusive: 104%
O=C(c1ccccc1)c1ccc(OCCOCCN2CCN(Cc3ccccc3)CC2)cc1	inactive: 103%
O=C(O)C(Cc1ccccc1-c1ccccc1)C(=O)O	inconclusive: 81.8%
Cc1cc(Oc2ccc(=O)[nH]n2)nc(Cl)n1	inconclusive: 107%
CCOC(=O)Cn1c(C(=O)OCC)cc2sccc21	inactive: 108%
CC(OC(=O)C1CCCCC1)c1nc2ccccc2[nH]1 (stereo not drawn)	inactive: 104%
CCOc1ccc(-n2c(=O)c3sccc3n(Cc3cccc([N+](=O)[O-])c3)c2=O)cc1	inactive: 95.6%
O=[N+]([O-])c1ccc(Sc2ncc3ccccn23)nc1	inconclusive: 73.7%
O=C(CSc1ccccn1)Nc1ccc2c(c1)OCO2	inconclusive: 105%
COc1ccc(OCCNC(=O)C(Cc2c[nH]c3ccccc23)NC(C)=O)cc1 (stereo not drawn)	inactive: 93.5%
CC1=CC(=C(C#N)C#N)c2ccccc2N1C	inconclusive: 100%
CC(=O)c1cnn(-c2ccc(Cl)c(Cl)c2Cl)c1C	inconclusive: 88.3%
O=C(c1c[nH]c2ccccc12)N1CCOCC1	inconclusive: 96.2%
Cc1cccn2c(=O)c3cc(C#N)c(=NC(=O)c4cccs4)n(CC(C)C)c3nc12	inconclusive: 91.5%
